Assay [1] concerns the target T1, Immunoglobulin superfamily member 9b (mouse (endogenous in mouse brain)) (UniProt E9PZ19).
T1 sequence: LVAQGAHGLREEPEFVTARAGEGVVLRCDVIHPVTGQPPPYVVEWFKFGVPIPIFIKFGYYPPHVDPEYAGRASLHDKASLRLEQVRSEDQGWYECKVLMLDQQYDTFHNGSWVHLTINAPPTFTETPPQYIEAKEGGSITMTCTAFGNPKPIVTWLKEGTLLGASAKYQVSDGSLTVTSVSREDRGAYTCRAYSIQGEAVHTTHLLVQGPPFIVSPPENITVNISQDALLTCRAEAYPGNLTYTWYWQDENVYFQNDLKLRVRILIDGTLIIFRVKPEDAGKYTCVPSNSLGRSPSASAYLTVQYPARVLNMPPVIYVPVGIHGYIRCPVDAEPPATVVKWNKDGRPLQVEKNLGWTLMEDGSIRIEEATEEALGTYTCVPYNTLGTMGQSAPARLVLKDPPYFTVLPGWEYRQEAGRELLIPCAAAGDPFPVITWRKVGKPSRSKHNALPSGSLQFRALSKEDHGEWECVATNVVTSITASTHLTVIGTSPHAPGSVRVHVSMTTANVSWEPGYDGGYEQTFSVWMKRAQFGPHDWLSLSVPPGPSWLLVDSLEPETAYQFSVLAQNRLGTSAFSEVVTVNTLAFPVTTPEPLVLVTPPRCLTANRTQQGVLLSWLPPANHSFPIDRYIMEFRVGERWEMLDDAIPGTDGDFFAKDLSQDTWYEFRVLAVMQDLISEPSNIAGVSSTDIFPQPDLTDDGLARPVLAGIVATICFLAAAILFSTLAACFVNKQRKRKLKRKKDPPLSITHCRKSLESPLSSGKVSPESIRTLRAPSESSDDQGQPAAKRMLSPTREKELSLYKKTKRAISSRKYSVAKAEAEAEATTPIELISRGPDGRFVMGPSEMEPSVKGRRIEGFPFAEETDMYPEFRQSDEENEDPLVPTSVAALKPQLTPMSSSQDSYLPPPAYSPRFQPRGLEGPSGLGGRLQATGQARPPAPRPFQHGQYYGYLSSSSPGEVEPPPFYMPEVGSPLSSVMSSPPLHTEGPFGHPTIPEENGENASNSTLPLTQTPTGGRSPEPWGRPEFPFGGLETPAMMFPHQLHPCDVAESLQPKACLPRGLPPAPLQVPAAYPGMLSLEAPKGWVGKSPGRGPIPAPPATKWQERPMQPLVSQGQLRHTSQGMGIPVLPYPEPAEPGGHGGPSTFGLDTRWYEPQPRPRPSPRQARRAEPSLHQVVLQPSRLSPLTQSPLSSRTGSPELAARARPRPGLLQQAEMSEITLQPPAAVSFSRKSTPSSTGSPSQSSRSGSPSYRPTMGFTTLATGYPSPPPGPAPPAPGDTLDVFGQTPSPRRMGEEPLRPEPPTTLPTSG
As to the kind of experiment: co-IP; whole mouse brain lysate in RIPA buffer; immunoprecipitation with anti-Prickle2 or anti-Igsf9b antibody, immunoblotting with specific antibodies. On the technique in general: Immunoblotting shows a protein as a band on a membrane.

Chains of the proteins cited; added tags and fusions are not shown. Residues count along the entry.
UniProt Q69ZK9, residues 15-836: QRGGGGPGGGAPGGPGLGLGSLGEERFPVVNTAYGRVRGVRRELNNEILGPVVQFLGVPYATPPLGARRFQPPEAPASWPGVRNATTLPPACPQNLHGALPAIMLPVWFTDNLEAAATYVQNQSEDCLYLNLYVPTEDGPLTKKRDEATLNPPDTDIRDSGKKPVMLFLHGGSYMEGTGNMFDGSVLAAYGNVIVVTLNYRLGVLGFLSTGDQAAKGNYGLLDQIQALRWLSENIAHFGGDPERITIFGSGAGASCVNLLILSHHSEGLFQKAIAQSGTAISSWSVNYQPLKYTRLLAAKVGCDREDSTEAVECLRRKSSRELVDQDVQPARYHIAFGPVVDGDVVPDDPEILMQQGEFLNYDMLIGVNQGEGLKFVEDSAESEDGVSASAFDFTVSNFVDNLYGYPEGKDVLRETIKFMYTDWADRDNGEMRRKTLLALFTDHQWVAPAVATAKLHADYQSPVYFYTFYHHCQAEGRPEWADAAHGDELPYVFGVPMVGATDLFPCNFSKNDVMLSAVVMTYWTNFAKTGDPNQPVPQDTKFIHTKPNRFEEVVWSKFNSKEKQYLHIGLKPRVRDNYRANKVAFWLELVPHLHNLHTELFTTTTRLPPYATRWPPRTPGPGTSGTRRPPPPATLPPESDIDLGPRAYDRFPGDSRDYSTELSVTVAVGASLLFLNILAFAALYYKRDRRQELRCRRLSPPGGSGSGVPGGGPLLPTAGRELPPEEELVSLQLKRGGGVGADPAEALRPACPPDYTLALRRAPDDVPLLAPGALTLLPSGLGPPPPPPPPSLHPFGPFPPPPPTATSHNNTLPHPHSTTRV

Assay [2] concerns the target T2, Prickle2 (mouse (endogenous in mouse brain)) (UniProt Q80Y24).
T2 sequence: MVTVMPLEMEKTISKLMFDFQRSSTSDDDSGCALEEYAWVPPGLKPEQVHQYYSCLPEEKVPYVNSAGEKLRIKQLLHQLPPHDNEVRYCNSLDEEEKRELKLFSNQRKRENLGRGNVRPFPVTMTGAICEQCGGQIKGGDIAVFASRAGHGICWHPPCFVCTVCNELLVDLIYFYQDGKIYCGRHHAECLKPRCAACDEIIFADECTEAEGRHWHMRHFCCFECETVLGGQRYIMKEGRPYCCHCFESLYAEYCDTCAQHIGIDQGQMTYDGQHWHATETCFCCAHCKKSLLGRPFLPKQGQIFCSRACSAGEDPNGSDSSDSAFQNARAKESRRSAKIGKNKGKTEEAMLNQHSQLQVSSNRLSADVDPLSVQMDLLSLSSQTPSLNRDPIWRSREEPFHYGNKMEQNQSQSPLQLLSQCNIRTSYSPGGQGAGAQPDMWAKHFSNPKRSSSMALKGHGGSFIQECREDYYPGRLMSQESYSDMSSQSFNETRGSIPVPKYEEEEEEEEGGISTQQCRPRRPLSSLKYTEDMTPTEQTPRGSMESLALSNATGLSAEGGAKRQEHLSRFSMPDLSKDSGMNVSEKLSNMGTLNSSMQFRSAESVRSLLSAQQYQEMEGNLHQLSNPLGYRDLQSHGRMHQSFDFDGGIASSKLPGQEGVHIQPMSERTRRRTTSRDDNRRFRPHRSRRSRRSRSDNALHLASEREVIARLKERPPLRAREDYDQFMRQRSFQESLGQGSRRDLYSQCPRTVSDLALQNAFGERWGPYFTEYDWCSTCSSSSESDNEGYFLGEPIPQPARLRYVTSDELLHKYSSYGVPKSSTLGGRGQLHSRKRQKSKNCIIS
Described as above.

These are yes or no findings as the source states them, for the method shown. In cells and extracts the contact can be indirect. Some binding calls cover weakened binding; strength is not graded here.

Consider “Neuroligin-2 (from UniProt Q69ZK9 15-836)”, for which the binding entry in assay [1] was “binds”.

B1: Prickle2 (protein, UniProt Q80Y24 1-845)
chain: T2 sequence
For B1, the binding entry in assay [1] was “binds”.

B2: Immunoglobulin superfamily member 9b (protein, UniProt E9PZ19 18-1328)
chain: T1 sequence
With B2, the binding entry in assay [2] is “binds”.

The record behind these values is article PMC10511046.
